According to PMC11189303:
Results are given in words; binding and its absence hold for the method and conditions named. Binding seen in cells or lysates may run through a third protein. These calls come from enrichment with a bait or labelling near it, and not all partners need be listed. One block for each substance: values may come before it.

Sequences of proteins named here, by UniProt entry; tags and fusion partners are left off. Residues count along the entry.
UniProt Q567U6: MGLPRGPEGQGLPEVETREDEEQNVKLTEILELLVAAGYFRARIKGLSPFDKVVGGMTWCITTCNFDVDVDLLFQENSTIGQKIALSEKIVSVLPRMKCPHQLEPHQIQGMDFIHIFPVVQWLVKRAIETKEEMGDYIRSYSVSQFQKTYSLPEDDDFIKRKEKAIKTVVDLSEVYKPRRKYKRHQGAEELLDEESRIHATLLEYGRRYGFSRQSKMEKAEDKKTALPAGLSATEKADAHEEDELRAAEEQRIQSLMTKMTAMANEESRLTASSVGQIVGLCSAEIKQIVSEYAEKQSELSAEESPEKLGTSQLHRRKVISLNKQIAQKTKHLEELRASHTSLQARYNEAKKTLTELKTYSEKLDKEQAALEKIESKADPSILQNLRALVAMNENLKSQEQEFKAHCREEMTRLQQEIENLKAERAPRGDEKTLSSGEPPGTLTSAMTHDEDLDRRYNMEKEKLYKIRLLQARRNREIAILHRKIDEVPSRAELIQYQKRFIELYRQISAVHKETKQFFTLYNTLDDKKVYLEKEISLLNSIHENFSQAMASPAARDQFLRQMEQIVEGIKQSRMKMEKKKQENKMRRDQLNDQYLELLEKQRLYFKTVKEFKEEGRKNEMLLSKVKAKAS
UniProt Q8N668: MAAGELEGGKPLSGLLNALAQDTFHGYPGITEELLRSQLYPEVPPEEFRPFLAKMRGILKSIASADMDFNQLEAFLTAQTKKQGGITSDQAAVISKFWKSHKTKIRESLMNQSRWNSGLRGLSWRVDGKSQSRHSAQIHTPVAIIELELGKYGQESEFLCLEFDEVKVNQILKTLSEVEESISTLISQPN
UniProt Q86X83: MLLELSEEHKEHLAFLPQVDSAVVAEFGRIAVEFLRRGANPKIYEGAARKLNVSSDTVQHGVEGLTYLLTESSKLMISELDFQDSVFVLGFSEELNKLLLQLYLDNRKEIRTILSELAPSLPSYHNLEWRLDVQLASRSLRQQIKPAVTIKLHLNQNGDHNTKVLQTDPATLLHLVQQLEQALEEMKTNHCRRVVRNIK
UniProt Q7Z4G1: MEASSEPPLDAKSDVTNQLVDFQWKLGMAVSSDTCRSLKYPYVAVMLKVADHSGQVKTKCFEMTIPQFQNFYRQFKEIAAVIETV
UniProt Q9NX08: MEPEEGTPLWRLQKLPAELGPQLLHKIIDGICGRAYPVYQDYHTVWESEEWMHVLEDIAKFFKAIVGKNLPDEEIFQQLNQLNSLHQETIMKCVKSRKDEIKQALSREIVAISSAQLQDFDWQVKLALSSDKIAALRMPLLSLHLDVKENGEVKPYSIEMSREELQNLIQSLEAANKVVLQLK
UniProt Q9H0A8: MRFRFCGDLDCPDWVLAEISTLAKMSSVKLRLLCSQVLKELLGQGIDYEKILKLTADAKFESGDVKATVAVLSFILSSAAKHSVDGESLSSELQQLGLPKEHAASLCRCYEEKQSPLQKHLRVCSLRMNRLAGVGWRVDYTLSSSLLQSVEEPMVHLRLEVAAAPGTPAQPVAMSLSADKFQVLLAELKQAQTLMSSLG
UniProt Q9Y6G5: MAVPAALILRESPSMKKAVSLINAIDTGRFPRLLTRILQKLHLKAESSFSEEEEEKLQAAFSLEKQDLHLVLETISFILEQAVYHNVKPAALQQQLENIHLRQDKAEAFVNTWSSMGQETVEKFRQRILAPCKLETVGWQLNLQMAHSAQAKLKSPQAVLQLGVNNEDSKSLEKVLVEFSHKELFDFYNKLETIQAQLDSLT
UniProt Q9GZQ3: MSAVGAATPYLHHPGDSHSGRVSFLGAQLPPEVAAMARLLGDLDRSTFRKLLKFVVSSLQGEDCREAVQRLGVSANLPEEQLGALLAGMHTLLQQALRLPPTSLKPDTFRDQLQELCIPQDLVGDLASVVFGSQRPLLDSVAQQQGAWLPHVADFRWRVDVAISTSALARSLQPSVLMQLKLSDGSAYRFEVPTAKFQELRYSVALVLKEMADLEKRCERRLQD
UniProt P15924: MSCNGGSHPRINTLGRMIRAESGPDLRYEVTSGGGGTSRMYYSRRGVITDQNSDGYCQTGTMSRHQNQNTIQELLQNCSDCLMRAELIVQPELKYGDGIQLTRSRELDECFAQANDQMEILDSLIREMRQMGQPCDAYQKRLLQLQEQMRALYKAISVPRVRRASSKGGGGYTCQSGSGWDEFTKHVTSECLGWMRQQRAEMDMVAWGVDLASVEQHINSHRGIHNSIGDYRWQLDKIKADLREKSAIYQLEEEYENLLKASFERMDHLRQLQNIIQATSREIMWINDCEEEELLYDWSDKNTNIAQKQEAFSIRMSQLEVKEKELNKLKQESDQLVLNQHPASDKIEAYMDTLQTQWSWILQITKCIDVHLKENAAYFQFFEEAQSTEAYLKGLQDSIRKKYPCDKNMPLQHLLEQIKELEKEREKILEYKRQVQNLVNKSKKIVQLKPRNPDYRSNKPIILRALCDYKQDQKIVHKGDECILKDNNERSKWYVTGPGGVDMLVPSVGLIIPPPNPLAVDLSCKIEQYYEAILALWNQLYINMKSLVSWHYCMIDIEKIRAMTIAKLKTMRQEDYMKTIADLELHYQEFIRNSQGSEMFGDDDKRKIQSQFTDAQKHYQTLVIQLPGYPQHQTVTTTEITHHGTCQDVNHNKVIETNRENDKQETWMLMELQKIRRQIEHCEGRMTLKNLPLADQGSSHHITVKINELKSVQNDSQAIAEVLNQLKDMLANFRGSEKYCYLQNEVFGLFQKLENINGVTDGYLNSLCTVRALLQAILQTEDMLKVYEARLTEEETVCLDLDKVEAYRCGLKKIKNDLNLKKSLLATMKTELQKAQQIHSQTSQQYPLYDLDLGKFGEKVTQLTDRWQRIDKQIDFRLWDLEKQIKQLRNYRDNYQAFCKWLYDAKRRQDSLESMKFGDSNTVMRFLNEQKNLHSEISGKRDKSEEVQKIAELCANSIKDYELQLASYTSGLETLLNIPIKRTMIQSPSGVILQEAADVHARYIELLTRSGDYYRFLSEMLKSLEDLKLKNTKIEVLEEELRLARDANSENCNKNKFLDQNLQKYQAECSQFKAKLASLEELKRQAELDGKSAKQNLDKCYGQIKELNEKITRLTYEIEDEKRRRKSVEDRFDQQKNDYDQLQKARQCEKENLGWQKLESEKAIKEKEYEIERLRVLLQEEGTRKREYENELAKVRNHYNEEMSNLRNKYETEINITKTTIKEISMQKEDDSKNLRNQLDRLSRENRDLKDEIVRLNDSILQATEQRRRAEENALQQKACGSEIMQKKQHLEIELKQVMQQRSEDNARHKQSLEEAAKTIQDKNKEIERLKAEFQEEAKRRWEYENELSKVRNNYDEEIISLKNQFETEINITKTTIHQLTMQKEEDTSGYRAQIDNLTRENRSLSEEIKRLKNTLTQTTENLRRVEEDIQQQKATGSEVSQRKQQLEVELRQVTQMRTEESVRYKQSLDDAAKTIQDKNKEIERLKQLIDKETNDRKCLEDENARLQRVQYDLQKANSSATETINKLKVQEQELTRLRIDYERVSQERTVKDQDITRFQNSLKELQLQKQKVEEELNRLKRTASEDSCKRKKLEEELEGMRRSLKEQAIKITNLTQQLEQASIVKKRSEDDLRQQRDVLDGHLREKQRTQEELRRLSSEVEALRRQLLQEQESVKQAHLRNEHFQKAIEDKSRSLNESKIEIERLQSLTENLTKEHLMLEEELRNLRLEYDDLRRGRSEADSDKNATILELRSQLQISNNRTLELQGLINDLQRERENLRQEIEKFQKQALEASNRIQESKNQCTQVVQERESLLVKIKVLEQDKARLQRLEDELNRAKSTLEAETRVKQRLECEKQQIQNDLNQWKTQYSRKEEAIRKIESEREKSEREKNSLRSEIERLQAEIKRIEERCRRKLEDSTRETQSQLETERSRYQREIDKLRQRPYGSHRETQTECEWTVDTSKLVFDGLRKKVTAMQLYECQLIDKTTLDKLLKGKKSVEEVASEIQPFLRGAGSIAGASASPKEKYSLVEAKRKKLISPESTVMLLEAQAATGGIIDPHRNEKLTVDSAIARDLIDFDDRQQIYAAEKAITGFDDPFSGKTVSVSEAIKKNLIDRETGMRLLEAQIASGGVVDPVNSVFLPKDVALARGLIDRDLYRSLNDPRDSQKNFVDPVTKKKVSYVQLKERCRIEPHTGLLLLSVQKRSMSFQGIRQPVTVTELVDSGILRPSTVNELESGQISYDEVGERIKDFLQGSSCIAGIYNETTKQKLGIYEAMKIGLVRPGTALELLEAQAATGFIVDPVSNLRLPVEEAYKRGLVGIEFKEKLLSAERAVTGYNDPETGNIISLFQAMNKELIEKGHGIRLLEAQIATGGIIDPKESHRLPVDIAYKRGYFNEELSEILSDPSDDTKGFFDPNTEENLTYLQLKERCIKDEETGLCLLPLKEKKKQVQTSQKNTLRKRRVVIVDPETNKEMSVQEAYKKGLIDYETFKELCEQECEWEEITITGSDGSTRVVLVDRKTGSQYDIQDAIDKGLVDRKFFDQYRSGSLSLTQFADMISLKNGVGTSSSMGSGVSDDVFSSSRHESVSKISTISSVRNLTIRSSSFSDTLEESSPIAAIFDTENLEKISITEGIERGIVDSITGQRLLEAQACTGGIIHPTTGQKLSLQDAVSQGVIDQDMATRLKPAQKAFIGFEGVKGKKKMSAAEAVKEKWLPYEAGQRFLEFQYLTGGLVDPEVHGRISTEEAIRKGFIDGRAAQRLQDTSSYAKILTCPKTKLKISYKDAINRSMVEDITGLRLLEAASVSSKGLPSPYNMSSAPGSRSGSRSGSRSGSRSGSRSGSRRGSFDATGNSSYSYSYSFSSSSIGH
UniProt O75461: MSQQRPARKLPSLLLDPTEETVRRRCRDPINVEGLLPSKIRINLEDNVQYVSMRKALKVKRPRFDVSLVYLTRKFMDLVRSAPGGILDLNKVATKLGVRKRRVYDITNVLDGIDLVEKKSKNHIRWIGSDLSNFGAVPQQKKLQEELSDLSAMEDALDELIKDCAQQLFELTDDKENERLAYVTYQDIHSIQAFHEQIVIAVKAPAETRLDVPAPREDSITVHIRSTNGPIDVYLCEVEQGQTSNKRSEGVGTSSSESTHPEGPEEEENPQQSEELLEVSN
UniProt Q02413, residues 50-1049: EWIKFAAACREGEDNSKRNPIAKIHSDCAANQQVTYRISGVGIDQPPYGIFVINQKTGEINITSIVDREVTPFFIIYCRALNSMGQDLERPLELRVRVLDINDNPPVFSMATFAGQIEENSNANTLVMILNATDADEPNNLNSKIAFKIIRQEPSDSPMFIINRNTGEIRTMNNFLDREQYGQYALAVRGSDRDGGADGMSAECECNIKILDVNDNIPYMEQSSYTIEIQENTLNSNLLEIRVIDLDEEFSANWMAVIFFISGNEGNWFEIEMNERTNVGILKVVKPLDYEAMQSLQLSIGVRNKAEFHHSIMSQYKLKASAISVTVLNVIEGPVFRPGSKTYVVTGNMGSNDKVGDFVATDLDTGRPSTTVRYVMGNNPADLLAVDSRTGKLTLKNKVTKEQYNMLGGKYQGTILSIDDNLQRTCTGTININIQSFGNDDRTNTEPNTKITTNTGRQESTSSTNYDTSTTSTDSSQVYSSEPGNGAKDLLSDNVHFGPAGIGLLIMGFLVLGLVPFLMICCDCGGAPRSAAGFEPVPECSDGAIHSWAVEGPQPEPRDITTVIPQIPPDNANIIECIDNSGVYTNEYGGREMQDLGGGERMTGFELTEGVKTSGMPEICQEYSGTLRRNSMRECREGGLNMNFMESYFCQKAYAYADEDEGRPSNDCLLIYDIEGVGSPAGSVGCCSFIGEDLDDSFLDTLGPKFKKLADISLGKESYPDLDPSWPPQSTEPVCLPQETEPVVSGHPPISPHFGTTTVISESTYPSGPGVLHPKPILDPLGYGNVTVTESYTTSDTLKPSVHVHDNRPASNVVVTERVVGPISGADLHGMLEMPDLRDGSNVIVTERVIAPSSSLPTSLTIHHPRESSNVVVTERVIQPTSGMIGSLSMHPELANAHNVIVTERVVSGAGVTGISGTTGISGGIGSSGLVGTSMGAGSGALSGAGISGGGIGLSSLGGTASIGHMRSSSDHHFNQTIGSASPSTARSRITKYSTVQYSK
UniProt P63092: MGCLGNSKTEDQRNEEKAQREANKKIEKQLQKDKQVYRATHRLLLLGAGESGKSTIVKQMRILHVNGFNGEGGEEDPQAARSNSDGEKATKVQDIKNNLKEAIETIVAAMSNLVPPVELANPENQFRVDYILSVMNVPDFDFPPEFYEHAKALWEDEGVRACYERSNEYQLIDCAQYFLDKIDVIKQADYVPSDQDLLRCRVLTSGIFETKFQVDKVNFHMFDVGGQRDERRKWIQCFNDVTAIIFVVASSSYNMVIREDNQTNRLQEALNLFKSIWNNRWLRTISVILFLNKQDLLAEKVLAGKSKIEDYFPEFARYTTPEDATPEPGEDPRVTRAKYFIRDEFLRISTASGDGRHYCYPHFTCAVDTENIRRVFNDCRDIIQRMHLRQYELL

Assays:
[1] = target: DENN domain-containing protein 10 (human) (UniProt Q8TCE6); test: proximity labelling; BioID–MS: MAC-tagged (BirA*) bait in Flp-In T-REx 293, tetracycline and 50 μM biotin 24 h; lysis with 0.1% SDS and benzonase, Strep-Tactin beads; high-confidence interactions by SAINTexpress and CRAPome
[2] = target: CCDC93 (human) (UniProt Q567U6); test: as above
[3] = target: CCDC22 (human) (UniProt O60826); test: as above
[4] = target: COMMD1 (human) (UniProt Q8N668); test: affinity purification with mass spectrometry; MAC-tagged bait stably expressed in Flp-In T-REx 293 (tetracycline 24 h); cleared lysate (50 mM HEPES pH 8.0, 150 mM NaCl, 0.5% IGEPAL) on Strep-Tactin beads, eluted with biotin; high-confidence interactions by SAINTexpress (BFDR < 0.05) and CRAPome against MAC-tagged GFP controls
[5] = target: COMMD2 (human) (UniProt Q86X83); test: as above
[6] = target: COMMD6 (human) (UniProt Q7Z4G1); test: as above
[7] = target: COMMD8 (human) (UniProt Q9NX08); test: proximity labelling; BioID–MS: MAC-tagged (BirA*) bait in Flp-In T-REx 293, tetracycline and 50 μM biotin 24 h; lysis with 0.1% SDS and benzonase, Strep-Tactin beads; high-confidence interactions by SAINTexpress and CRAPome
[8] = target: COMMD9 (human) (UniProt Q9P000); test: as above
[9] = target: COMMD1 (human) (UniProt Q8N668); test: as above
[10] = target: COMMD2 (human) (UniProt Q86X83); test: as above
[11] = target: CCDC22 (human) (UniProt O60826); test: affinity purification with mass spectrometry; MAC-tagged bait stably expressed in Flp-In T-REx 293 (tetracycline 24 h); cleared lysate (50 mM HEPES pH 8.0, 150 mM NaCl, 0.5% IGEPAL) on Strep-Tactin beads, eluted with biotin; high-confidence interactions by SAINTexpress (BFDR < 0.05) and CRAPome against MAC-tagged GFP controls
[12] = target: COMMD9 (human) (UniProt Q9P000); test: as above
[13] = target: COMMD3 (human) (UniProt Q9UBI1); test: as above
[14] = target: COMMD4 (human) (UniProt Q9H0A8); test: as above
[15] = target: COMMD10 (human) (UniProt Q9Y6G5); test: as above
[16] = target: COMMD5 (human) (UniProt Q9GZQ3); test: as above
[17] = target: VPS35L (human) (UniProt Q7Z3J2); test: proximity labelling; BioID–MS: MAC-tagged (BirA*) bait in Flp-In T-REx 293, tetracycline and 50 μM biotin 24 h; lysis with 0.1% SDS and benzonase, Strep-Tactin beads; high-confidence interactions by SAINTexpress and CRAPome
[18] = target: CCDC93 (human) (UniProt Q567U6); test: affinity purification with mass spectrometry; MAC-tagged bait stably expressed in Flp-In T-REx 293 (tetracycline 24 h); cleared lysate (50 mM HEPES pH 8.0, 150 mM NaCl, 0.5% IGEPAL) on Strep-Tactin beads, eluted with biotin; high-confidence interactions by SAINTexpress (BFDR < 0.05) and CRAPome against MAC-tagged GFP controls
[19] = target: VPS35L wild type with C-terminal MAC3-tag (human) (UniProt Q7Z3J2); test: proximity labelling; BioID–MS with C-terminal MAC3-tag (ultraID) on wild type and RSS disease variants of CCDC22 and VPS35L in Flp-In T-REx 293; biotin 5 h
[20] = target: VPS35L(A830T) with C-terminal MAC3-tag (human) (UniProt Q7Z3J2); test: as above

Substance: COMMD1 (from UniProt Q8N668 1-190)
- binding [1]: binds
- binding [2]: binds

Substance: COMMD5 (from UniProt Q9GZQ3 1-224)
- binding [1]: binds
- binding [2]: binds

Substance: COMMD6 (from UniProt Q7Z4G1 1-85)
- binding [1]: binds
- binding [2]: binds

Substance: COMMD7 (from UniProt Q86VX2 1-200)
- binding [1]: binds

Substance: COMMD10 (from UniProt Q9Y6G5 1-202)
- binding [1]: binds
- binding [2]: binds

Substance: DSP (from UniProt P15924 1-2871)
- binding [4]: binds
- binding [5]: binds
- binding [6]: binds

Substance: E2F4 (from UniProt Q16254 1-413)
- binding [7]: binds

Substance: E2F6 (from UniProt O75461 1-281)
- binding [8]: binds
- binding [9]: binds
- binding [10]: binds
- binding [4]: binds

Substance: EXOC4 (from UniProt Q96A65 1-974)
- binding [11]: binds

Substance: EXOC5 (from UniProt O00471 1-708)
- binding [11]: binds

Substance: HERC1 (from UniProt Q15751 1-4861)
- binding [17]: binds

Substance: MICAL3 (from UniProt Q7RTP6 1-2002)
- binding [18]: binds

Substance: MTMR2 (Myotubularin-related protein) (from UniProt Q13614 1-643)
- binding [11]: binds

Substance: VPS26C (from UniProt O14972 1-297)
- binding [19]: binds
- binding [20]: binds
- binding [1]: binds

Substance: gelsolin (GSN) (from UniProt P06396 28-782)
- binding [12]: binds
- binding [13]: binds
- binding [15]: binds

Continued, values first:

- binding [1]: binds
- binding [3]: binds
Substance: COMMD4 (from UniProt Q9H0A8 1-199)

- binding [1]: binds
- binding [2]: binds
Substance: COMMD8 (from UniProt Q9NX08 1-183)

- binding [4]: binds
- binding [5]: binds
- binding [6]: binds
Substance: DSC1 (from UniProt Q08554)

- binding [4]: binds
- binding [5]: binds
- binding [6]: binds
Substance: DSG1 (from UniProt Q02413 50-1049)

- binding [11]: binds
Substance: EXOC6 (from UniProt Q8TAG9 1-804)

- binding [12]: binds
- binding [13]: binds
- binding [14]: binds
- binding [15]: binds
- binding [16]: binds
Substance: Guanine nucleotide-binding protein G(s) subunit α (GNAS) (from UniProt P63092 1-394)

- binding [11]: binds
Substance: PCM1 (Pericentriolar Material 1) (from UniProt Q15154 1-2024)

- binding [7]: binds
- binding [4]: binds
Substance: TFDP1 (from UniProt Q14186 1-410)

- binding [11]: binds
Substance: WASHC2A (from UniProt Q641Q2 1-1341)
